Experimental data from doi:10.1101/808311.
Read-outs that look alike come from different tables or passages of the source. No constants are given. Whether binding was seen depends on the method and setting. In cells and extracts the contact can be indirect. Binding can be weak; no strength is given.

Amino acid sequences for entries named in this document (tags omitted). A change or cut given only in a name is not applied to a line headed by its entry.
UniProt Q96B77: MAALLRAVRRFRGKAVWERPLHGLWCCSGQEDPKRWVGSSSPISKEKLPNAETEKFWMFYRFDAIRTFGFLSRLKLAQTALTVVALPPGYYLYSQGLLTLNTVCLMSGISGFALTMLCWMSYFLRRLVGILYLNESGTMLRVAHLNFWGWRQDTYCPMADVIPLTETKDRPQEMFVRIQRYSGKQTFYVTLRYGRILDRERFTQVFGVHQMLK
UniProt P03891: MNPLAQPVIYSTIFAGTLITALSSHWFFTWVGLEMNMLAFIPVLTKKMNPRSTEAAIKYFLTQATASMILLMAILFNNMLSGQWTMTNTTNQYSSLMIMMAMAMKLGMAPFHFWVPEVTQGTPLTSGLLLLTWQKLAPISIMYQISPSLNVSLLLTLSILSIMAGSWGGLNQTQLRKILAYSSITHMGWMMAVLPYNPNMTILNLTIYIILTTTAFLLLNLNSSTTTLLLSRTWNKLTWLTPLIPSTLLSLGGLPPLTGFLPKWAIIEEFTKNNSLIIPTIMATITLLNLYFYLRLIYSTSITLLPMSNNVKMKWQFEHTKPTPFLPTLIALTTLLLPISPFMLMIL
UniProt P03897: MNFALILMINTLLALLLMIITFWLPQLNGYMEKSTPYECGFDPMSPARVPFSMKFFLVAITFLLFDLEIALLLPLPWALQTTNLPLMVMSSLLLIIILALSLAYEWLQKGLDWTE
UniProt P03901: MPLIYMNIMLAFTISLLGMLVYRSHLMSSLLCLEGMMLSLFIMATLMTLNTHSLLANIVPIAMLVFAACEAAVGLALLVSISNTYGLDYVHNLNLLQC

How the values were obtained:
Test in all cases: co-IP
[1] = target: TMEM186 with a C-terminal Flag epitope (human) (UniProt Q96B77)
[2] = target: TMEM186 with a C-terminal Flag epitope (human) (UniProt Q96B77); remark: listed apart in the source
[3] = target: TMEM186 with a C-terminal Flag epitope (human) (UniProt Q96B77); remark: listed apart in the source
[4] = target: TMEM186 with a C-terminal Flag epitope (human) (UniProt Q96B77); remark: listed apart in the source

| Molecule | binding [1] | binding [2] | binding [3] | binding [4] |
| --- | --- | --- | --- | --- |
| ND2, newly synthesised mtDNA-encoded complex I subunit (HEK293T-derived cells) (from UniProt P03891 1-347) | binds |  |  |  |
| ND3, newly synthesised mtDNA-encoded complex I subunit (HEK293T-derived cells) (from UniProt P03897 1-115) | binds | binds |  |  |
| ND4L, newly synthesised mtDNA-encoded complex I subunit (HEK293T-derived cells) (from UniProt P03901 1-98) | binds |  |  |  |
| ACAD9 (endogenous, HEK293T-derived cells) (protein, UniProt Q9H845 38-621) AFAKELFLGKIKKKEVFPFPEVSQDELNEINQFLGPVEKFFTEEVDSRKIDQEGKIPDETLEKLKSLGLFGLQVPEEYGGLGFSNTMYSRLGEIISMDGSITVTLAAHQAIGLKGIILAGTEEQKAKYLPKLASGEHIAAFCLTEPASGSDAASIRSRATLSEDKKHYILNGSKVWITNGGLANIFTVFAKTEVVDSDGSVKDKITAFIVERDFGGVTNGKPEDKLGIRGSNTCEVHFENTKIPVENILGEVGDGFKVAMNILNSGRFSMGSVVAGLLKRLIEMTAEYACTRKQFNKRLSEFGLIQEKFALMAQKAYVMESMTYLTAGMLDQPGFPDCSIEAAMVKVFSSEAAWQCVSEALQILGGLGYTRDYPYERILRDTRILLIFEGTNEILRMYIALTGLQHAGRILTTRIHELKQAKVSTVMDTVGRRLRDSLGRTVDLGLTGNHGVVHPSLADSANKFEENTYCFGRTVETLLLRFGKTIMEEQLVLKRVANILINLYGMTAVLSRASRSIRIGLRNHDHEVLLANTFCVEAYLQNLFSLSQLDKYAPENLDEQIKKVSQQILEKRAYICAHPLDRTC |  |  | binds | binds |
